Test results reported in the supplement of paper PMC11150407.
Screen size: about 3,000 compounds; about 45 (2%) showed an effect of 50% or more. Some of the results follow.

Tested on: MOLM1 and UCSD/AML1 (averaged)
Test: cell viability relative to DMSO control (POC); higher = less growth inhibition
Details: 1 µM; 72 h
Description: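 Primary viability screen in the 3q26 EVI1-high AML cell lines MOLM1 and UCSD/AML1, compounds at 1 uM for 72 h. ATP CellTiter-Glo read-out given as percent viable over DMSO control (POC), averaged over duplicates. This mapping covers the TimTec NDL-3000 natural derivative library, whose compounds are identified by TimTec catalogue codes (ST...).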

How did the cell viability turn out when `CC12CCC3C(CC=C4CC(OC5CCCCO5)CCC43C)C1CCC2=O` (stereo not drawn) was run?
Its cell viability is 90.4%.

`COc1ccc2c(CN3CC=C(c4ccccc4)CC3)cc(=O)oc2c1` was tested. Which cell viability did it give?
Its cell viability is 102%.

With `CCOC(=O)c1c(CN2CCN(c3ccccc3C)CC2)n(Cc2ccccc2)c2cc(Br)c(O)cc12` as the compound, how does the cell viability read?
The cell viability was 94.5%.

Which cell viability does the source give for `Cc1cc2c(c(O)c1-c1c(C)cc3c(c1O)C(C=C1C(=O)NC(=O)NC1=O)C(=O)C(O)=C3C(C)C)C(C=C1C(=O)NC(=O)NC1=O)C(=O)C(O)=C2C(C)C` (stereo not drawn) here?
Its cell viability is 96.2%.

Which cell viability does the source give for `CCOc1ccc(C(=O)Nc2ccc(C#N)c(Cl)c2)cc1OCC` here?
Its cell viability is 101%.

With `COC(C)C(O)(C(=O)OCC1=CC[N+]2(C)CCC(O)C12)C(C)C` (stereo not drawn) as the compound, how does the cell viability read?
The cell viability was 107%.

Which cell viability does the source give for `O=c1c2ccccc2nc(CSc2ncnc3nc[nH]c23)n1-c1ccc(Cl)c(Cl)c1` here?
The cell viability was 99.5%.

How did the cell viability turn out when `CC(O)CN1CCCCC1c1cccnc1.O.O.O.O.O.O.O=[N+]([O-])O.O=[N+]([O-])O.[Co]` (stereo not drawn) was run?
The cell viability was 97.4%.

With `C=CCNC(=S)OCCN1CCCCC1c1cccnc1.O.O.[Cl][Cu][Cl]` (stereo not drawn) as the compound, how does the cell viability read?
The cell viability was 109%.

For `Cc1ccc2c(c1)c1c3n2CCN([N+](=O)[O-])C3CCC1` (stereo not drawn), which cell viability is on record?
The cell viability was 101%.

With `COc1ccc(C2C(C#N)=C(N)Oc3c2c(=O)oc2ccccc32)cc1Cn1nc([N+](=O)[O-])c(Br)c1C` (stereo not drawn) as the compound, how does the cell viability read?
The cell viability was 91.9%.

`OCC(O)[C@H]1O[C@@H]2OC(C(Cl)(Cl)Cl)OC2C1O` (stereo partly drawn) was tested. Which cell viability did it give?
Its cell viability is 100%.

Which cell viability does the source give for `O=[N+]([O-])OCCC12C(I)C3C4CC5C3C1C(I)C5C42` (stereo not drawn) here?
The cell viability was 70.3%.

How did the cell viability turn out when `O=C1CCC(=O)N1C1CCCN2CCCCC12` (stereo not drawn) was run?
The cell viability was 103%.

Which cell viability does the source give for `CCOC(=O)C1=C(N)Oc2c(c(=O)oc3ccccc23)C1c1ccc(Br)cc1` (stereo not drawn) here?
Its cell viability is 93%.

How did the cell viability turn out when `Cc1[nH]c2ccc(I)cc2c1CCN` was run?
The cell viability was 97.8%.

How did the cell viability turn out when `N#CCCOCCC#CCN1CCCCC1c1cccnc1` (stereo not drawn) was run?
Its cell viability is 105%.

`CNCC(O)c1ccc(O)cc1` (stereo not drawn) was tested. Which cell viability did it give?
The cell viability was 102%.

Which cell viability does the source give for `COC(=O)c1c(C)n(Cc2ccc3c(c2)OCO3)c2ccc(O)cc12` here?
The cell viability was 93.4%.

Which cell viability does the source give for `CN1C2CC(OC(=O)C(CO)c3ccccc3)CC1C1OC12` (stereo not drawn) here?
The cell viability was 102%.

`N#CC1=C(N)Oc2c(c(=O)oc3ccccc23)C1c1ccc(F)cc1` (stereo not drawn) was tested. Which cell viability did it give?
Its cell viability is 91.4%.

For `O=c1[nH]c(O)c(N=Nc2cccc([N+](=O)[O-])c2)c(=O)[nH]1`, which cell viability is on record?
Its cell viability is 96.3%.

How did the cell viability turn out when `C/C=C1\C[N+]2(CC)CCC34c5cccc(O)c5NC3C(C=O)C1CC42` (stereo not drawn) was run?
The cell viability was 105%.

How did the cell viability turn out when `COc1c(O)cc(C2C(C#N)=C(N)Oc3c2c(=O)oc2ccccc32)cc1[N+](=O)[O-]` (stereo not drawn) was run?
Its cell viability is 102%.

`N#Cc1cc2ccc(O)cc2oc1=O` was tested. Which cell viability did it give?
The cell viability was 95.3%.

For `CN1C2CCC1CC(=O)C2`, which cell viability is on record?
Its cell viability is 94.3%.

`O=C1NC(=O)N(c2ccc3c(c2)OCO3)C(=O)/C1=C/c1ccc(N2CCCCC2)cc1` was tested. Which cell viability did it give?
The cell viability was 108%.

For `COCCOC(=O)c1c(C)n(Cc2ccco2)c2ccc(O)cc12`, which cell viability is on record?
Its cell viability is 99.4%.

`CC(C[N+]1(C)CCCCC1)OC(=O)CCCCC(=O)OC(C)C[N+]1(C)CCCCC1` (stereo not drawn) was tested. Which cell viability did it give?
The cell viability was 107%.

Which cell viability does the source give for `c1cnc2c(OCC3CCCN4CCCCC34)cccc2c1` (stereo not drawn) here?
The cell viability was 103%.

For `COC(=O)C(CCCN=C(N)N[N+](=O)[O-])NC(=O)c1ccc(C)cc1` (stereo not drawn), which cell viability is on record?
The cell viability was 94.4%.

`CC(=O)c1c(C)n(Cc2ccccc2Cl)c2ccc(O)cc12` was tested. Which cell viability did it give?
Its cell viability is 89.6%.

For `O=C(Cc1ccccc1)OCC1CCCN2CCCCC12` (stereo not drawn), which cell viability is on record?
The cell viability was 99.6%.

For `CCOC(=O)C1=C(N)Oc2c(c(=O)oc3ccccc23)C1c1ccc(Cl)c(Cl)c1` (stereo not drawn), which cell viability is on record?
Its cell viability is 37.7%.

With `N#CC1=C(N)Oc2c(c(=O)oc3ccccc23)C1c1cccs1` (stereo not drawn) as the compound, how does the cell viability read?
The cell viability was 97.3%.

With `COc1cc(OC)c(OC)cc1C=O` as the compound, how does the cell viability read?
The cell viability was 103%.

With `CCN(CC)CCNC(=O)c1c(O)c2ccccc2n(Cc2ccccc2)c1=O` as the compound, how does the cell viability read?
The cell viability was 93.9%.

How did the cell viability turn out when `O=C1CC2OCC=C3CN4CCC56c7cc([N+](=O)[O-])ccc7N1C5C2C3CC46` (stereo not drawn) was run?
Its cell viability is 96.4%.

For `O.O.[Cl][Cu][Cl].c1cncc(C2CCCCN2)c1` (stereo not drawn), which cell viability is on record?
Its cell viability is 104%.

For `C/C=C1\C[N+]2(CC)CCC34C(=C(C=O)[C@H]1CC32)Nc1ccccc14` (stereo partly drawn), which cell viability is on record?
Its cell viability is 111%.

With `COCCOC(=O)c1c(C)n(Cc2ccc(C(C)(C)C)cc2)c2c1cc(O)c1ccccc12` as the compound, how does the cell viability read?
Its cell viability is 92.8%.

With `O=C1NC(=O)N(Cc2ccccc2)C(=O)/C1=C/c1ccc2c(c1)OCO2` as the compound, how does the cell viability read?
The cell viability was 97%.

With `CN(CC12CC3CC(CC(C3)C1)C2)C(=O)c1c[nH]c2ccccc12` as the compound, how does the cell viability read?
The cell viability was 111%.

How did the cell viability turn out when `CCOc1ccc(C=C(C#N)C#N)cc1` was run?
The cell viability was 91.8%.

`COc1cc2c(cc1OC)-c1c(OC)c(OC)cc3c1C(C2)[N+](C)(C)CC3` (stereo not drawn) was tested. Which cell viability did it give?
The cell viability was 95.6%.

`COCCOC(=O)c1c(C)n(Cc2ccccc2Cl)c2c1cc(O)c1ccccc12` was tested. Which cell viability did it give?
The cell viability was 108%.

For `N#CC1=C(N)Oc2c(c(=O)oc3ccccc23)C1c1cccc(Br)c1` (stereo not drawn), which cell viability is on record?
The cell viability was 98%.

How did the cell viability turn out when `C[N+]1(CCOCC2CCC[N+]3(C)CCCCC23)CCCC(c2ccccn2)C1` (stereo not drawn) was run?
The cell viability was 92.5%.

For `O=C(O)Cc1cnc[nH]1`, which cell viability is on record?
Its cell viability is 95.2%.

With `C1CCC(OCC2CCCN3CCCCC23)CC1` (stereo not drawn) as the compound, how does the cell viability read?
The cell viability was 104%.

How did the cell viability turn out when `O=c1oc2ccccc2c(O)c1Cc1ccccc1` was run?
The cell viability was 106%.

Which cell viability does the source give for `COC(=O)c1ccc(OC)c(OC)c1` here?
The cell viability was 96.4%.

For `C/C=C1\CN2CCC34c5ccccc5NC3C(CO)[C@H]1CC24` (stereo partly drawn), which cell viability is on record?
Its cell viability is 96.3%.

With `O=C1NC(=O)C(=Cc2ccc(O)c(O)c2)C(=O)N1` as the compound, how does the cell viability read?
The cell viability was 88.1%.

`NC1CCOC1=O` (stereo not drawn) was tested. Which cell viability did it give?
Its cell viability is 99.6%.

Which cell viability does the source give for `N#CC1=C(N)Oc2c(c(=O)oc3ccccc23)C1c1ccccc1Br` (stereo not drawn) here?
The cell viability was 97.2%.

Which cell viability does the source give for `COC(=O)C1=C(N)Oc2c(c(=O)oc3ccccc23)C1c1cccc(C(F)(F)F)c1` (stereo not drawn) here?
Its cell viability is 93.2%.

How did the cell viability turn out when `NCCc1ccc(OCc2ccccc2)c(OCc2ccccc2)c1` was run?
The cell viability was 96%.

Which cell viability does the source give for `Cc1ccc2c(c1N)C(=O)c1ccccc1C2=O` here?
The cell viability was 79.9%.

How did the cell viability turn out when `Cc1ccccc1N1C(=O)NC(=O)/C(=C\c2ccc3c(c2)OCO3)C1=O` was run?
The cell viability was 97.2%.

How did the cell viability turn out when `CCOC(=O)C1=C(N)Oc2c(c(=O)oc3ccccc23)C1c1ccc(F)cc1F` (stereo not drawn) was run?
The cell viability was 94.5%.

Which cell viability does the source give for `O=C(Cc1c(O)c2ccccc2oc1=O)c1ccc(F)cc1` here?
The cell viability was 91%.

For `COc1ccc(C(=O)NC(Cc2cnc[nH]2)C(=O)O)cc1` (stereo not drawn), which cell viability is on record?
Its cell viability is 93.7%.

How did the cell viability turn out when `Clc1ccc2[nH]c3c(c2c1)CCNC3` was run?
The cell viability was 102%.

With `COc1ccc(CC(C)NC(=O)C(=O)c2c[nH]c3ccccc23)cc1` (stereo not drawn) as the compound, how does the cell viability read?
The cell viability was 97.4%.

How did the cell viability turn out when `COc1cc(C=O)cc(OC)c1OC` was run?
The cell viability was 102%.

With `COc1cccc(C=O)c1OC` as the compound, how does the cell viability read?
The cell viability was 104%.

Which cell viability does the source give for `O=C1CCCC(=O)N1C1CCCN2CCCCC12` (stereo not drawn) here?
Its cell viability is 103%.

`O=c1[nH]c(=O)n(-c2ccc(Br)cc2)c(O)c1/C=C1/C=Nc2ccccc21` was tested. Which cell viability did it give?
The cell viability was 97.3%.

With `O.O.OCC1CCCN2CCCCC12.[Cl][Cu][Cl]` (stereo not drawn) as the compound, how does the cell viability read?
The cell viability was 110%.

With `Cc1c(C(=O)OC(C)(C)C)c2cc(O)c3ccccc3c2n1Cc1ccco1` as the compound, how does the cell viability read?
Its cell viability is 98.4%.

With `CCOC(=O)C1=C(N)Oc2c(c(=O)oc3ccccc23)C1c1cccc(Br)c1` (stereo not drawn) as the compound, how does the cell viability read?
The cell viability was 103%.

`Nc1ccc2c(c1)C13CCN4CC5=CCOC6CC(=O)N2C1C6C5CC43` (stereo not drawn) was tested. Which cell viability did it give?
The cell viability was 101%.

How did the cell viability turn out when `CCOC(=O)C1=C(N)Oc2c(c(=O)oc3ccccc23)C1c1c(F)cccc1Cl` (stereo not drawn) was run?
The cell viability was 96.5%.

With `CCCC(=O)c1ccc2c(c1)OCO2` as the compound, how does the cell viability read?
Its cell viability is 104%.

`COc1ccc2[nH]c3c(c2c1)CCNC3` was tested. Which cell viability did it give?
Its cell viability is 104%.

With `COc1cccc(C(O)CNC(C)C)c1` (stereo not drawn) as the compound, how does the cell viability read?
The cell viability was 101%.

For `NCCC(=O)OCC1CCCN2CCCCC12` (stereo not drawn), which cell viability is on record?
Its cell viability is 109%.

How did the cell viability turn out when `O=[N+]([O-])N1CCn2c3c(c4cc(C5CCCCC5)ccc42)CCCC31` (stereo not drawn) was run?
Its cell viability is 67.5%.

With `CCOC(=O)C1=C(N)Oc2c(c(=O)oc3ccccc23)C1c1ccc(Cl)cc1Cl` (stereo not drawn) as the compound, how does the cell viability read?
Its cell viability is 104%.

With `CC(C)NCC(O)c1cccc(Cl)c1` (stereo not drawn) as the compound, how does the cell viability read?
The cell viability was 91.6%.

For `CN(N=O)C(=O)NC1OC(CO)C(O)C(O)C1O` (stereo not drawn), which cell viability is on record?
The cell viability was 103%.

With `O.O.O.O.O.O.O=[N+]([O-])O.O=[N+]([O-])O.OCC1CCCN2CCCCC12.[Co]` (stereo not drawn) as the compound, how does the cell viability read?
Its cell viability is 96.8%.
